Experimental data taken from the supplement of paper PMC10849652.
The other results are listed elsewhere or left out.

Protein sequences, listed by entry. Tags and fused reporters are not part of them. Lines headed by an entry give the natural chain unless they say otherwise; changes in a name come on top.
UniProt Q16543: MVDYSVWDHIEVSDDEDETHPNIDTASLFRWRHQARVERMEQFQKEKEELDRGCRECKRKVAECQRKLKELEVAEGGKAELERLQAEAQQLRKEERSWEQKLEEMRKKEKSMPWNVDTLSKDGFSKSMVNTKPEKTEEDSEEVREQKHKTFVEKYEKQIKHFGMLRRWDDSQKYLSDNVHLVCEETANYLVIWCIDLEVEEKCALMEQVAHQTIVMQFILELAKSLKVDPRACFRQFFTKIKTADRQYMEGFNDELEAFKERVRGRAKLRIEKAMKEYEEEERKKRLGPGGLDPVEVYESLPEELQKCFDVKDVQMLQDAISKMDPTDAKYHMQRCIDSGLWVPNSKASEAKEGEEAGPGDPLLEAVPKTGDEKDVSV
UniProt Q8TCZ2: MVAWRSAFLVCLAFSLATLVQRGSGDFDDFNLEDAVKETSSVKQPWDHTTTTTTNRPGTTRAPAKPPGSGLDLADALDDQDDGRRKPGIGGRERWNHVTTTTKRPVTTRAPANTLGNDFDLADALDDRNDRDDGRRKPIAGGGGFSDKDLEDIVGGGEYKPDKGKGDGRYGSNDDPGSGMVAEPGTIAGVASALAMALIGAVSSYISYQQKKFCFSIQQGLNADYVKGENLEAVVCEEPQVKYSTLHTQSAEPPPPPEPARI
UniProt Q9Y4F5: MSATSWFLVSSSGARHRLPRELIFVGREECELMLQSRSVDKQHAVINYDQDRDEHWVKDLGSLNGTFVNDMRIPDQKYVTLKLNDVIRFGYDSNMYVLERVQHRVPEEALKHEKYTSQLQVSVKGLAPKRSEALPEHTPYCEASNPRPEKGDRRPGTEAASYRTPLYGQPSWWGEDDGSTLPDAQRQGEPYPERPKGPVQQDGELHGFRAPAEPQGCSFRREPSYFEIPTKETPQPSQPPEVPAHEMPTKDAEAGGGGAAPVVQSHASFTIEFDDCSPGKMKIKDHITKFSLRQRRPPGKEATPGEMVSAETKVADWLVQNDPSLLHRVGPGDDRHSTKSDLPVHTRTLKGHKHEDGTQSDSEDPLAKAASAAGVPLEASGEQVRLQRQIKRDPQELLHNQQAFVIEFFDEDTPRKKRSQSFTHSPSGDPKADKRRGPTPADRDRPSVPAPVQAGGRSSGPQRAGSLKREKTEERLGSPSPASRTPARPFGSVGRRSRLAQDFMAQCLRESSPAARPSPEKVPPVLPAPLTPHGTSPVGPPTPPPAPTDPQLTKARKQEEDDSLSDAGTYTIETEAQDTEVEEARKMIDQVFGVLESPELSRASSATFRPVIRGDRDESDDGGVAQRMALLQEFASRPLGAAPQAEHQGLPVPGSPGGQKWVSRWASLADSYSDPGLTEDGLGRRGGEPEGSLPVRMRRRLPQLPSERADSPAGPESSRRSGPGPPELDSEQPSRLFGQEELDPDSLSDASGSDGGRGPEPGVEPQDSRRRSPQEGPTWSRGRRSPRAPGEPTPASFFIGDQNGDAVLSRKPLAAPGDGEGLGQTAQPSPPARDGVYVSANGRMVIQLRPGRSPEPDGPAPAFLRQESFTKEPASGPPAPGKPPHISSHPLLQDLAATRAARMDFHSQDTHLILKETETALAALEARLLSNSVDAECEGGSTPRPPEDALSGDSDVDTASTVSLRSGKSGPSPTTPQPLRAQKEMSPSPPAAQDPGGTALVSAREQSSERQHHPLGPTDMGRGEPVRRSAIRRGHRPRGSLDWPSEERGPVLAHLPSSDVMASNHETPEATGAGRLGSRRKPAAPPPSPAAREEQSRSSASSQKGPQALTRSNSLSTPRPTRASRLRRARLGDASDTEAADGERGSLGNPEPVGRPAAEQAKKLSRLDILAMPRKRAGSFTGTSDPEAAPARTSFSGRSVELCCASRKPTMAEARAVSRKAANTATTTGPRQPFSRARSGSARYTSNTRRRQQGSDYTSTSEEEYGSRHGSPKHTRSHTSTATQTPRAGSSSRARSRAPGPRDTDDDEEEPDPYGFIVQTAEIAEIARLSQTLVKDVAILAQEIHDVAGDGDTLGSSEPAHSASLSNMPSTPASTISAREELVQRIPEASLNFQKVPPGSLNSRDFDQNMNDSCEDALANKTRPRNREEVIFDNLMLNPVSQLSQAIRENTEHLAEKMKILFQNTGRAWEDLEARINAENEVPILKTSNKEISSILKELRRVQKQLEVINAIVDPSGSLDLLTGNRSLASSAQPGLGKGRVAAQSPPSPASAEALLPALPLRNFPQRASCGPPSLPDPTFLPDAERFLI
UniProt P53567: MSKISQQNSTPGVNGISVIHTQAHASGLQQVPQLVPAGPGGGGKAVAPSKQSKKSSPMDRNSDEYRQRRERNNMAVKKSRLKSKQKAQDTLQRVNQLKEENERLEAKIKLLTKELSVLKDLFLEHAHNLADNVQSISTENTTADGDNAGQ
UniProt Q6DT37: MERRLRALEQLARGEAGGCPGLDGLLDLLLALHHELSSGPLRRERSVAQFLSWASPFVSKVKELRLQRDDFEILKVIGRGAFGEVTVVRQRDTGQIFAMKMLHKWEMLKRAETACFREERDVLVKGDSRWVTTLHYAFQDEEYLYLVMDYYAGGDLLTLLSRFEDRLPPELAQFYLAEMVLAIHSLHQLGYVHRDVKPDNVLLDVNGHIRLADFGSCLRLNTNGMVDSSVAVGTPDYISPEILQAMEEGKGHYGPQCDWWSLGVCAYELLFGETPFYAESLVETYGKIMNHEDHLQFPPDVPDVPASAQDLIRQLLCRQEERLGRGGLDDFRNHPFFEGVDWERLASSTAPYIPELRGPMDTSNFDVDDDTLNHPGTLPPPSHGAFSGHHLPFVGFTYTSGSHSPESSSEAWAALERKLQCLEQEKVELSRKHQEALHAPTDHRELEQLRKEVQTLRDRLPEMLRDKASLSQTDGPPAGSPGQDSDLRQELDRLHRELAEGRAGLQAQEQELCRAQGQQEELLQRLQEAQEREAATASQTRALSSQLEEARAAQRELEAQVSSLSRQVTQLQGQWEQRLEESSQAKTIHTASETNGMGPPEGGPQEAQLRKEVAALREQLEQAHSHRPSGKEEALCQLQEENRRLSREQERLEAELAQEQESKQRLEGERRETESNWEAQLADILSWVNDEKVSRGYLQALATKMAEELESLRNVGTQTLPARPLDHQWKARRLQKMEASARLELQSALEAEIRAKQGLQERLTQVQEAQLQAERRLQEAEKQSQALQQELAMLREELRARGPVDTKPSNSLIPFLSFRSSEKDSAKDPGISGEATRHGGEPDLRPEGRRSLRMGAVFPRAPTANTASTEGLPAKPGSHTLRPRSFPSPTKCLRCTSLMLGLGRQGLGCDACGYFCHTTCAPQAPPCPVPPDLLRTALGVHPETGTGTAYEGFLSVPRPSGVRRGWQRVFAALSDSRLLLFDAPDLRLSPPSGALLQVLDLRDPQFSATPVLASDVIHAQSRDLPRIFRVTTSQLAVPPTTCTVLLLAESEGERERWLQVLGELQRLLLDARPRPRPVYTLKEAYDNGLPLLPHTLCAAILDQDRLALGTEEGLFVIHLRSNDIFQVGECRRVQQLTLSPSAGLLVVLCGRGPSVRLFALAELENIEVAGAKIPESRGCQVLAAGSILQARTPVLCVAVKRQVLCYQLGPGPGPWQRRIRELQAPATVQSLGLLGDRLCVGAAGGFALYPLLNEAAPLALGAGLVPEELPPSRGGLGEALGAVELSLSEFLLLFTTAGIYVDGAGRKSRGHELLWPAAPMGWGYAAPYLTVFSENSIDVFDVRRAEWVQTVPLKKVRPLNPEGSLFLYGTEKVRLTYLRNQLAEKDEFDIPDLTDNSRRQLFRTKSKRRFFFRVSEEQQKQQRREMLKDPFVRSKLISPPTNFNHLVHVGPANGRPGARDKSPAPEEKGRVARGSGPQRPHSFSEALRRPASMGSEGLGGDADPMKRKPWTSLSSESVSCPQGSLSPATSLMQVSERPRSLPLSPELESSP
UniProt Q9P2B7: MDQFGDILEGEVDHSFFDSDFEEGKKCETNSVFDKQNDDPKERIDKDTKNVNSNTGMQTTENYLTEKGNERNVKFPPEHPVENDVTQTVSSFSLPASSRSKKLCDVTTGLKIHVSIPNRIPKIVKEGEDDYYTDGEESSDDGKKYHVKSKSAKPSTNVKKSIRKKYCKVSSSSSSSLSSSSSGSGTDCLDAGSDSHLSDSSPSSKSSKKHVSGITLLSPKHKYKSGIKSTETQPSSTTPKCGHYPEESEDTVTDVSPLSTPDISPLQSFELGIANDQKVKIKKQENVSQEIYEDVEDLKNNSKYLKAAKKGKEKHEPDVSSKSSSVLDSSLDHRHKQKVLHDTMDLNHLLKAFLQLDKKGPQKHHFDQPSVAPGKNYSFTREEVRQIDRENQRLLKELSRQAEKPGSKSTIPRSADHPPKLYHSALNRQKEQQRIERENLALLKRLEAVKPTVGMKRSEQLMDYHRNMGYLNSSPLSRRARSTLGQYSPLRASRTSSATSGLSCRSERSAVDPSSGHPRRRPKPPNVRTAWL
UniProt Q16667, whole entry, looked up: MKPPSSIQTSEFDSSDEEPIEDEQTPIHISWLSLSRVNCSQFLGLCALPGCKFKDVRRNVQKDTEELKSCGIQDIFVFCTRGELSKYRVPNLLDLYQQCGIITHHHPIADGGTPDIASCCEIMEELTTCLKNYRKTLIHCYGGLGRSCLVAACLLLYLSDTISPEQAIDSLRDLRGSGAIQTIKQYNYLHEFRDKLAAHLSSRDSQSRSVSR
UniProt Q8IYX8: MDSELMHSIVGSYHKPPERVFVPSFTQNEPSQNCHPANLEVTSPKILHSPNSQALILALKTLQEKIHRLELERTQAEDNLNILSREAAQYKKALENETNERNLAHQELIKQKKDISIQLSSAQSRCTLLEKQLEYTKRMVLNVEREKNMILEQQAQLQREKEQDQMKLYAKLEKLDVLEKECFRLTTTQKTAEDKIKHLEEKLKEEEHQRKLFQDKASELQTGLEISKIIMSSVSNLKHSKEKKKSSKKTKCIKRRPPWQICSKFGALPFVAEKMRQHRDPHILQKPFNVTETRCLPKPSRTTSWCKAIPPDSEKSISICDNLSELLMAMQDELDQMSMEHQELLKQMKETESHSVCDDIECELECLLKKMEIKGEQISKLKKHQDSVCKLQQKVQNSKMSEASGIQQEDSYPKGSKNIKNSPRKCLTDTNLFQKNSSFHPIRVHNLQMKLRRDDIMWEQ
UniProt P21926: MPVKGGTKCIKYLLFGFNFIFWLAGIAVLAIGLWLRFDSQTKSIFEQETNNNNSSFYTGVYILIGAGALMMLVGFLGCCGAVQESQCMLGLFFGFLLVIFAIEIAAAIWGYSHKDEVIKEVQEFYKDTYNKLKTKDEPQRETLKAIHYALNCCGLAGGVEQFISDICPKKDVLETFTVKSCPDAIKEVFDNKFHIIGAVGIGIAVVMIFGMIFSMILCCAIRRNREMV
UniProt Q9NRR8: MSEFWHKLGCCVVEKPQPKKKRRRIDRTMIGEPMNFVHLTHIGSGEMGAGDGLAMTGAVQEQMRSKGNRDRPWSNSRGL
UniProt A8MTT3: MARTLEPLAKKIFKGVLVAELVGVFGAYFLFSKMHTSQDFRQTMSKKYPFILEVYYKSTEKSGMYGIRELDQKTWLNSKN

Columns and labels:
Assay in all cases: log2 fold change, soluble protein after heating vs DMSO (PISA); higher = thermal stabilisation; K562 lysate, 10 uM; active = over 0.2 and 3.5 SD of the protein, either way, in both replicates (recomputed)
[1] = compound: C1=CC=C(C=C1)[C@H](COC2=CC3=C(C=C2)NC(=O)N3)NC(=O)C4=CC=CN(C4=O)CC5=CC(=C(C=C5)F)F
In short: (§1)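 K562 pellets were dounce-homogenised in PBS pH 7.4 containing 1 mM MgCl2, and the crude extract, at 1 mg/mL protein, was exposed to 10 μM compound for 30 min. Aliquots were heated for 3 min across 48°C-58°C, pooled, brought to 0.5% NP-40 at 4°C and spun at 21,000xg for 90 min, with the supernatant taken as soluble protein. TMTpro 16plex LC-MS/MS with equalised channel sums quantified that protein. Values are log-two fold changes in thermal stability relative to solvent controls, taken from duplicates.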

[2] = compound: CC1=C(SC2=C1C(=N[C@H](C3=NN=C(N32)C)CC(=O)N)C4=CC=C(C=C4)Cl)C
In short: as §1

[3] = compound: CC1=C2C(=CC=C1)N=C(N(C2=O)C3=CC=CC=C3C)CN4C=NC5=C(N=CN=C54)N
In short: as §1

[4] = compound: Cc1sc2c(c1C)C(c1ccc(Cl)cc1)=N[C@@H](CC(=O)OC(C)(C)C)c1nnc(C)n1-2
In short: as §1

[5] = compound: c1ccc([C@@H]2C[C@H]2NC2CCNCC2)cc1
In short: as §1

Target	log2 fold change [1]	log2 fold change [2]	log2 fold change [3]	log2 fold change [4]	log2 fold change [5]
CDC37 (UniProt Q16543)	inactive: 0.011	inactive: -0.003	inactive: -0.058	inactive: 0.005	inactive: 0.012
CDC37 (UniProt K7EL68)	inactive: 0	inactive: -0.182	inactive: -0.019		inactive: -0.044
CENPF (UniProt P49454)	inactive: -0.01	inactive: -0.007	inactive: 0.013	inactive: -0.024	inactive: -0.002
CETN2 (UniProt P41208)	inactive: 0.006	inactive: 0.097	inactive: -0.042	inactive: 0.01	inactive: -0.002
CD99L2 isoform 5 (UniProt Q8TCZ2)			inactive: 0.095	inactive: -0.064	inactive: -0.096
CEP78 isoform 2 (UniProt Q5JTW2)				inactive: -0.053	
CENPC (UniProt Q03188)				inactive: 0.247	inactive: -0.1
CEP170B (UniProt Q9Y4F5)			inactive: 0.063	inactive: -0.002	inactive: 0.011
CEBPG (UniProt P53567)	inactive: 0.206	inactive: 0.116			inactive: -0.055
CDC42BPG (UniProt Q6DT37)				inactive: -0.052	
CFAP97 (UniProt Q9P2B7)			inactive: -0.11	inactive: 0.191	inactive: 0.097
CDKN3 (UniProt Q16667)	inactive: 0.026	inactive: 0.077			inactive: -0.054
CEP295 isoform 3 (UniProt Q9C0D2)	inactive: -0.154	inactive: 0.045			inactive: 0.024
CDKL5 (UniProt O76039)			inactive: 0.043	inactive: -0.139	inactive: -0.132
CEP85L isoform 4 (UniProt Q5SZL2)			inactive: 0.267		
CENPP (UniProt Q6IPU0)			inactive: 0.096	inactive: -0.103	inactive: -0.037
CERS5 (UniProt Q8N5B7)	inactive: -0.039	inactive: -0.05		inactive: -0.015	inactive: -0.044
CDC42, A0A494C1M1					inactive: 0.257
CDC6 (UniProt Q99741)				inactive: 0.406	

Target	log2 fold change [1]	log2 fold change [2]	log2 fold change [3]	log2 fold change [4]	log2 fold change [5]
CEP57 (UniProt Q86XR8)					inactive: -0.049
CEP57L1 (UniProt Q8IYX8)	inactive: -0.078	inactive: 0.115		inactive: 0.143	inactive: 0.099
CDC37 (UniProt K7EKQ2)			inactive: -0.023	inactive: 0.018	inactive: 0.208
CDT1 (UniProt Q9H211)	inactive: 0.383	inactive: 0.066		inactive: 0.031	inactive: -0.01
CEP68 (UniProt Q76N32)				inactive: 0.093	
CENPM (UniProt Q9NSP4)	inactive: 0.036	inactive: -0.374		inactive: -0.069	inactive: -0.098
CEP170 isoform 2 (UniProt Q5SW79)				inactive: 0.103	inactive: -0.058
CFAP47 (UniProt Q6ZTR5)			inactive: 0.088	inactive: -0.2	inactive: -0.148
CDC42EP2 (UniProt O14613)			inactive: 0.222		
CD9 (UniProt P21926)			inactive: -0.008	inactive: 0	inactive: 0.041
CDC42SE1 (UniProt Q9NRR8)	inactive: -0.229	inactive: 0.138			inactive: 0.164
CDC27 (UniProt G5EA36)	inactive: 0.141	inactive: 0.031		inactive: 0.066	inactive: 0.14
CEP72 (UniProt Q9P209)				inactive: 0.077	
CD84 (UniProt Q9UIB8)	inactive: 0.08	inactive: 0.081			inactive: 0.079
CEBPZOS (UniProt A8MTT3)			inactive: -0.03	inactive: -0.006	inactive: 0.018
CDC25A (UniProt P30304)				inactive: -0.064	
CDCA4 (UniProt Q9BXL8)			inactive: 0.347	inactive: 0.032	
CD82 (UniProt P27701)			inactive: -0.042		inactive: 0.047
CEP83 (UniProt Q9Y592)			inactive: -0.165		inactive: 0.03

Reprinted at random: three entries already listed
Target	log2 fold change [1]	log2 fold change [2]	log2 fold change [3]	log2 fold change [4]	log2 fold change [5]
CDC27 (UniProt G5EA36)	inactive: 0.141	inactive: 0.031		inactive: 0.066	inactive: 0.14
CFAP97 (UniProt Q9P2B7)			inactive: -0.11	inactive: 0.191	inactive: 0.097
CEP72 (UniProt Q9P209)				inactive: 0.077	
